These are yes or no findings as the source states them, for the method shown. Some entries that bind do so weakly or less than the wild type.
The binders below were run against Plasmodium falciparum DHFR domain (amino acids 1-228), expressed from pAC-pfDHFR (Plasmodium falciparum) (UniProt P13922) (assay: co-purification on methotrexate-sepharose affinity column; pfDHFR and truncated pfJRTS co-expressed in E. coli χ2913; crude extract circulated overnight over methotrexate-sepharose CL-6B in buffer A with 0.2 M KCl, washed with 0.75 M KCl, DHFR eluted with 4 mM H2folate; pfTS found in the eluate by TS activity and [3H]-FdUMP labelling).

Binder | binding
pfJRTSΔ232-235 (domain or fragment, UniProt P13922 236-608) MEQNCIKGEEKNNDMPLKNDDKDTCHMKKLTEFYKNVDKYKINYENDDDDEEEDDFVYFNFNKEKEEKNKNSIHPNDFQIYNSLKYKYHPEYQYLNIIYDIMMNGNKQSDRTGVGVLSKFGYIMKFDLSQYFPLLTTKKLFLRGIIEELLWFIRGETNGNTLLNKNVRIWEANGTREFLDNRKLFHREVNDLGPIYGFQWRHFGAEYTNMYDNYENKGVDQLKNIINLIKNDPTSRRILLCAWNVKDLDQMALPPCHILCQFYVFDGKLSCIMYQRSCDLGLGVPFNIASYSIFTHMIAQVCNLQPAQFIHVLGNAHVYNNHIDSLKIQLNRIPYPFPTLKLNPDIKNIEDFTISDFTIQNYVHHEKISMDMAA | binds
pfJRTSΔ232-251 (domain or fragment, UniProt P13922 252-608) MEKNDDKDTCHMKKLTEFYKNVDKYKINYENDDDDEEEDDFVYFNFNKEKEEKNKNSIHPNDFQIYNSLKYKYHPEYQYLNIIYDIMMNGNKQSDRTGVGVLSKFGYIMKFDLSQYFPLLTTKKLFLRGIIEELLWFIRGETNGNTLLNKNVRIWEANGTREFLDNRKLFHREVNDLGPIYGFQWRHFGAEYTNMYDNYENKGVDQLKNIINLIKNDPTSRRILLCAWNVKDLDQMALPPCHILCQFYVFDGKLSCIMYQRSCDLGLGVPFNIASYSIFTHMIAQVCNLQPAQFIHVLGNAHVYNNHIDSLKIQLNRIPYPFPTLKLNPDIKNIEDFTISDFTIQNYVHHEKISMDMAA | binds
pfJRTSΔ232-265 (domain or fragment, UniProt P13922 266-608) MEFYKNVDKYKINYENDDDDEEEDDFVYFNFNKEKEEKNKNSIHPNDFQIYNSLKYKYHPEYQYLNIIYDIMMNGNKQSDRTGVGVLSKFGYIMKFDLSQYFPLLTTKKLFLRGIIEELLWFIRGETNGNTLLNKNVRIWEANGTREFLDNRKLFHREVNDLGPIYGFQWRHFGAEYTNMYDNYENKGVDQLKNIINLIKNDPTSRRILLCAWNVKDLDQMALPPCHILCQFYVFDGKLSCIMYQRSCDLGLGVPFNIASYSIFTHMIAQVCNLQPAQFIHVLGNAHVYNNHIDSLKIQLNRIPYPFPTLKLNPDIKNIEDFTISDFTIQNYVHHEKISMDMAA | binds
pfJRTSΔ232-271 (domain or fragment, UniProt P13922 272-608) MDKYKINYENDDDDEEEDDFVYFNFNKEKEEKNKNSIHPNDFQIYNSLKYKYHPEYQYLNIIYDIMMNGNKQSDRTGVGVLSKFGYIMKFDLSQYFPLLTTKKLFLRGIIEELLWFIRGETNGNTLLNKNVRIWEANGTREFLDNRKLFHREVNDLGPIYGFQWRHFGAEYTNMYDNYENKGVDQLKNIINLIKNDPTSRRILLCAWNVKDLDQMALPPCHILCQFYVFDGKLSCIMYQRSCDLGLGVPFNIASYSIFTHMIAQVCNLQPAQFIHVLGNAHVYNNHIDSLKIQLNRIPYPFPTLKLNPDIKNIEDFTISDFTIQNYVHHEKISMDMAA | binds
pfJRTSΔ232-274 (domain or fragment, UniProt P13922 275-608) MKINYENDDDDEEEDDFVYFNFNKEKEEKNKNSIHPNDFQIYNSLKYKYHPEYQYLNIIYDIMMNGNKQSDRTGVGVLSKFGYIMKFDLSQYFPLLTTKKLFLRGIIEELLWFIRGETNGNTLLNKNVRIWEANGTREFLDNRKLFHREVNDLGPIYGFQWRHFGAEYTNMYDNYENKGVDQLKNIINLIKNDPTSRRILLCAWNVKDLDQMALPPCHILCQFYVFDGKLSCIMYQRSCDLGLGVPFNIASYSIFTHMIAQVCNLQPAQFIHVLGNAHVYNNHIDSLKIQLNRIPYPFPTLKLNPDIKNIEDFTISDFTIQNYVHHEKISMDMAA | binds
pfJRTSΔ232-276 (domain or fragment, UniProt P13922 277-608) MNYENDDDDEEEDDFVYFNFNKEKEEKNKNSIHPNDFQIYNSLKYKYHPEYQYLNIIYDIMMNGNKQSDRTGVGVLSKFGYIMKFDLSQYFPLLTTKKLFLRGIIEELLWFIRGETNGNTLLNKNVRIWEANGTREFLDNRKLFHREVNDLGPIYGFQWRHFGAEYTNMYDNYENKGVDQLKNIINLIKNDPTSRRILLCAWNVKDLDQMALPPCHILCQFYVFDGKLSCIMYQRSCDLGLGVPFNIASYSIFTHMIAQVCNLQPAQFIHVLGNAHVYNNHIDSLKIQLNRIPYPFPTLKLNPDIKNIEDFTISDFTIQNYVHHEKISMDMAA | binds

— article PMC3623654
